{"sequences": {"note": "By UniProt entry, the sequences of proteins in these tests, tags left out. Where a name states a change or a piece, a line headed by the entry shows the natural chain unless it says otherwise.", "UniProt Q9I4Y0": "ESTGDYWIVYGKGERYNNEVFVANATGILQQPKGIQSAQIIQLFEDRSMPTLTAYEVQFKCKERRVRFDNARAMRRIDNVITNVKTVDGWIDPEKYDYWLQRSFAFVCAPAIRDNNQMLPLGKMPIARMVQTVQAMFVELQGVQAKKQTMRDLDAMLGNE"}, "source": "paper PMC12494544", "about": "(The Journal of Biological Chemistry, 2025)", "molecular_target": "T1, PA0990-VSV (PA0990 protein fused with a VSV affinity tag) (P. aeruginosa PAO1) (UniProt Q9I4X9)", "T1 sequence": "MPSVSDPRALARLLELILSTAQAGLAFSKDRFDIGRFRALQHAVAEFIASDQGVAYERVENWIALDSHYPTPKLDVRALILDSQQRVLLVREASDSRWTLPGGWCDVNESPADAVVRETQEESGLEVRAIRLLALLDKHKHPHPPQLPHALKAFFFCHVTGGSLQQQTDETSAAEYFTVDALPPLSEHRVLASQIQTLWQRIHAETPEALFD", "test": "co-IP", "note": "No constants are given. Whether binding was seen depends on the method and setting. Binding seen in cells or lysates may run through a third protein. A result given as binding can be weak or reduced; the word gives no strength. Sequences can lack the tags named with a protein.", "data": [{"substance": "PseM-FLAG (P. aeruginosa secreted endolytic muramidase, product of gene locus PA0989) (from UniProt Q9I4Y0) (enzyme)", "values": [{"measurement": "binding", "result": "binds"}]}]}
